Test results reported in publication PMC5717063.

Experiments:
[1] = target: HSP60/HSP10 complex (porcine); experiment: protease protection (trypsin sensitivity assay); heat-denatured rhodanese with HSP60/HSP10 and ATP; samples at 1 min or 60 min, 10 ug/ml trypsin for 3 min; SDS-PAGE; both purified
[2] = target: HSP60/HSP10 complex (porcine); experiment: protease protection (trypsin sensitivity assay); heat-denatured rhodanese with HSP60/HSP10 and GTP-AlFx; samples at 1 min or 60 min, 10 ug/ml trypsin for 3 min; SDS-PAGE; both purified
[3] = target: HSP60/HSP10 complex (porcine); experiment: protease protection (trypsin sensitivity assay); heat-denatured rhodanese with HSP60/HSP10 and ATP-AlFx; samples at 1 min or 60 min, 10 ug/ml trypsin for 3 min; SDS-PAGE; both purified

binding [1]: binds
binding [2]: binds
binding [3]: binds
B1: His-tagged rhodanese (heat-denatured) (enzyme, UniProt P00586 1-297)
chain: MVHQVLYRALVSTKWLAESVRAGKVGPGLRVLDASWYSPGTREARKEYLERHVPGASFFDIEECRDKASPYEVMLPSEAGFADYVGSLGISNDTHVVVYDGDDLGSFYAPRVWWMFRVFGHRTVSVLNGGFRNWLKEGHPVTSEPSRPEPAIFKATLNRSLLKTYEQVLENLESKRFQLVDSRAQGRYLGTQPEPDAVGLDSGHIRGSVNMPFMNFLTEDGFEKSPEELRAMFEAKKVDLTKPLIATCRKGVTACHIALAAYLCGKPDVAIYDGSWFEWFHRAPPETWVSQGKGGKA

Results are given in words; binding and its absence hold for the method and conditions named. A result given as binding can be weak or reduced; the word gives no strength. Sequences can lack the tags named with a protein.
